# Where two headings read alike, the source gives them in different places. For some of these results: For at least one compound, name, drawing or mass did not settle the structure. Some of these results come from one statement about several compounds together.
# Legend:
# rheumatoid arthritis = details: literature trials; cited from earlier work
# Propionobacterium acnes = details: cited from earlier work
# various cell types = details: in vitro and in vivo; cited from earlier work
# osteoarthritis = details: contralateral, but not index; cited from earlier work
# [1] = fasting subjects (Welling, 1977); cited from earlier work
# [2] = oral, with food; cited from earlier work
# [3] = test system: human intestine cell line CCL-221; assay: Growth of human intestine cell line CCL-221; format: cell-based; details: 5 μg/ml
# From the text: The intestine epithelial cells have a high proliferation rate. Thus, the anti-proliferating effect of semisynthetic or synthetic tetracyclines may lead to potential side effects, especially during a long-term therapy.
Structure (SMILES),effect on arthritis in trials (rheumatoid arthritis),MIC (Propionobacterium acnes; insensitive strains),MIC (Propionobacterium acnes; sensitive strains),effect on cell proliferation (various cell types),effect on knee osteoarthritis (osteoarthritis),serum level [1],reduction of absorption by food [2],inhibition of cell growth [3]
CN(C)c1ccc(O)c2c1C[C@H]1C[C@H]3[C@H](N(C)C)C(O)=C(C(N)=O)C(=O)[C@@]3(O)C(O)=C1C2=O [minocycline],beneficial effect,5 µg/mL,0.3 µg/mL,inhibit proliferation,,,,
C[C@H]1c2cccc(O)c2C(=O)C2=C(O)[C@]3(O)C(=O)C(C(N)=O)=C(O)[C@@H](N(C)C)[C@@H]3[C@@H](O)[C@@H]21 [doxycycline],,,,inhibit proliferation,modest effect,4400 to 4700 ng/mL,,
CN(C)[C@@H]1C(O)=C(C(N)=O)C(=O)[C@@]2(O)C(O)=C3C(=O)c4c(O)cccc4[C@@](C)(O)[C@H]3[C@H](O)[C@@H]12 [oxytetracycline],,,,,,,50-70%,
"CN(C)[C@@H]1C(O)=C(C(N)=O)C(=O)[C@@]2(O)C(O)=C3C(=O)c4c(O)cccc4[C@@](C)(O)[C@H]3C[C@@H]12 [tetracycline, 4-(Dimethylamino)-1,4,4α,5,5α,6,11,12α-octahydro-3,6,10,12,12α-pentahydroxy-6-methyl-1,1′-dioxo-2-naphtacenecarobxamide]",no significant benefit,5 to 10 µg/mL,0.6 µg/mL,,,4400 to 4700 ng/mL,,no inhibition of cell growth
